Assay [1] concerns the target T1, Src homology 2-containing inositol 5-phosphatase 2 (SHIP2), endogenous (human (endogenous in HGC-27 and MKN-28)) (UniProt O15357).
T1 sequence: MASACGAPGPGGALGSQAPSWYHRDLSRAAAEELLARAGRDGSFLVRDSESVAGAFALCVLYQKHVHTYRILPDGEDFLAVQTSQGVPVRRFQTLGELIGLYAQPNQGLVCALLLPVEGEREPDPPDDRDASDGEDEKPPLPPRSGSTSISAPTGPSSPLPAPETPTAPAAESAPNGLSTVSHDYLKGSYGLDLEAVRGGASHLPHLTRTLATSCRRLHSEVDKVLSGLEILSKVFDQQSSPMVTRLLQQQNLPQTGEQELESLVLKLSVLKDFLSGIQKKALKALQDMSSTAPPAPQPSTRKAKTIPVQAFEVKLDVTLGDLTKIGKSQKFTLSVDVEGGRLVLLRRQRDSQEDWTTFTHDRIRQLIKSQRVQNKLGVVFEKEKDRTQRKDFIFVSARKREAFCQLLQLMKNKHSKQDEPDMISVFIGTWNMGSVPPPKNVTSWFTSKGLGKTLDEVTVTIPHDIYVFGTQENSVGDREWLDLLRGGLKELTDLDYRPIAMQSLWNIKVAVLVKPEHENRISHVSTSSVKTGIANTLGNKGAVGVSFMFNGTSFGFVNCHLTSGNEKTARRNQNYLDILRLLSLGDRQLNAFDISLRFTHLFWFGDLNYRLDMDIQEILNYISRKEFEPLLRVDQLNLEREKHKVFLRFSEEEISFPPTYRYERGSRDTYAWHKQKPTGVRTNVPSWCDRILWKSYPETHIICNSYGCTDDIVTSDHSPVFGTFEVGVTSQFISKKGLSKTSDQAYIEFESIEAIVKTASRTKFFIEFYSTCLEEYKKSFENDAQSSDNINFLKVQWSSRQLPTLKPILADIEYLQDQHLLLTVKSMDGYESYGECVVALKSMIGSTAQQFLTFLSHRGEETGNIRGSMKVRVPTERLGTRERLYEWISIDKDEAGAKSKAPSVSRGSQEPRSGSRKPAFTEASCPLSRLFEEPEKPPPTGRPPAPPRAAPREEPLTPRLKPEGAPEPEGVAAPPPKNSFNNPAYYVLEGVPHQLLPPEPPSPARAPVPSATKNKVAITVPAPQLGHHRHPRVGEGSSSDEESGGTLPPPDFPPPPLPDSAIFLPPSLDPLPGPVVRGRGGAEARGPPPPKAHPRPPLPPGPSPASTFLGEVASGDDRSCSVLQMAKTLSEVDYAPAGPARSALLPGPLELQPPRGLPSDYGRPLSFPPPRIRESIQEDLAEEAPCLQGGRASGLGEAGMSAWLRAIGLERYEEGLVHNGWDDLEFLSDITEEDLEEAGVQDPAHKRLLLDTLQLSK
Description: affinity purification with mass spectrometry; immunoprecipitation of SHIP2 from GC cells followed by mass spectrometry.

Chains of the proteins cited; added tags and fusions are not shown.
UniProt Q99623: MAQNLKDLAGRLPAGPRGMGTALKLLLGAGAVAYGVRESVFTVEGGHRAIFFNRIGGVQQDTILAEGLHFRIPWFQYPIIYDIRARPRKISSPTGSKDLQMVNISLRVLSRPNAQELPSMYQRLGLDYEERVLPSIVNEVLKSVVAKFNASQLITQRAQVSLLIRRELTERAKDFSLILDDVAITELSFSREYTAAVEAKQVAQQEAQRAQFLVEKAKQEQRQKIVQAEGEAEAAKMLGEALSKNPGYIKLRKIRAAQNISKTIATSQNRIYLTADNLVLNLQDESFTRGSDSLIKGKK
UniProt P46934: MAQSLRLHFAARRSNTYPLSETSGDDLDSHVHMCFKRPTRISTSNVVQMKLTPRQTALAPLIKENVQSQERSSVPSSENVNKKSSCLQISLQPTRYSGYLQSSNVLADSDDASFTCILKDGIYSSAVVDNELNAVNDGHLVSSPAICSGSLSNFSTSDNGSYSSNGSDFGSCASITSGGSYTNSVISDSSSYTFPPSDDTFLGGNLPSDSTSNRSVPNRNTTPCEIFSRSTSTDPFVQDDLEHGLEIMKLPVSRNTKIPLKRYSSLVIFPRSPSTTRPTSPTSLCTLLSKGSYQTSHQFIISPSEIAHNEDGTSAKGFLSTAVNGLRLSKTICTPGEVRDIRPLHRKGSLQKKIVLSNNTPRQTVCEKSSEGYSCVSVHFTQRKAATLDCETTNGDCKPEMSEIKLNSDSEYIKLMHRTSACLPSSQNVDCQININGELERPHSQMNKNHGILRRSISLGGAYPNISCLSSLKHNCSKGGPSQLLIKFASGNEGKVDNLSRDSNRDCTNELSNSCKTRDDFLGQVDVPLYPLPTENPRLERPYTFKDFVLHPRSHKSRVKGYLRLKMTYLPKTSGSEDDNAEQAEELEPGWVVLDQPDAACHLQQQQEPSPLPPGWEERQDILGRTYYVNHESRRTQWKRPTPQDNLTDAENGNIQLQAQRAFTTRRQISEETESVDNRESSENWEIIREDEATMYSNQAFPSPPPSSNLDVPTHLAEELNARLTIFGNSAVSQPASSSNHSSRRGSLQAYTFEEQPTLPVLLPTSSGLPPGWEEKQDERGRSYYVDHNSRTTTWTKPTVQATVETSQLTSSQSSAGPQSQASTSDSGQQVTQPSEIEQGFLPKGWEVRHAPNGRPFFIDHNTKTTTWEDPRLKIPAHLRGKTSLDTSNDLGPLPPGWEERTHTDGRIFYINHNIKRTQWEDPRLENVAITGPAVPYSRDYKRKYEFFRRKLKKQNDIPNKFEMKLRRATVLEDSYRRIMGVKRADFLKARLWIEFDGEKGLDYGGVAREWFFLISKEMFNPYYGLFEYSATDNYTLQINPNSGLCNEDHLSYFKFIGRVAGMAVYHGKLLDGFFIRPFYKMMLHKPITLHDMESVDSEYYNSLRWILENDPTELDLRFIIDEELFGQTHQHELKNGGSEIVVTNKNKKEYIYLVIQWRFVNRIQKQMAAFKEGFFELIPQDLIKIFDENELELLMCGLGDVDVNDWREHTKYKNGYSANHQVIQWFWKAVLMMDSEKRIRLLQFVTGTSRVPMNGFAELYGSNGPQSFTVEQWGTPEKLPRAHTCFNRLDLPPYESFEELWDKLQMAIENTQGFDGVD

Assay [2] deals with Prohibitin 2 (PHB2), endogenous (human (endogenous in HGC-27 and MKN-28)) (UniProt Q99623). Description: affinity purification with mass spectrometry; immunoprecipitation of PHB2 from HGC-27 cells followed by mass spectrometry (IP-MS).

No constants are given. Whether binding was seen depends on the method and setting. Binding seen in cells or lysates may run through a third protein. A yes stands for co-enrichment or nearness to the bait. Other partners may have been found.

In the case of “NEDD4, endogenous (from UniProt P46934 1-1319) (enzyme)”, the binding entry in assay [1] was “binds”.

B1: Src homology 2-containing inositol 5-phosphatase 2 (SHIP2), endogenous (protein, UniProt O15357 1-1258)
chain: MASACGAPGPGGALGSQAPSWYHRDLSRAAAEELLARAGRDGSFLVRDSESVAGAFALCVLYQKHVHTYRILPDGEDFLAVQTSQGVPVRRFQTLGELIGLYAQPNQGLVCALLLPVEGEREPDPPDDRDASDGEDEKPPLPPRSGSTSISAPTGPSSPLPAPETPTAPAAESAPNGLSTVSHDYLKGSYGLDLEAVRGGASHLPHLTRTLATSCRRLHSEVDKVLSGLEILSKVFDQQSSPMVTRLLQQQNLPQTGEQELESLVLKLSVLKDFLSGIQKKALKALQDMSSTAPPAPQPSTRKAKTIPVQAFEVKLDVTLGDLTKIGKSQKFTLSVDVEGGRLVLLRRQRDSQEDWTTFTHDRIRQLIKSQRVQNKLGVVFEKEKDRTQRKDFIFVSARKREAFCQLLQLMKNKHSKQDEPDMISVFIGTWNMGSVPPPKNVTSWFTSKGLGKTLDEVTVTIPHDIYVFGTQENSVGDREWLDLLRGGLKELTDLDYRPIAMQSLWNIKVAVLVKPEHENRISHVSTSSVKTGIANTLGNKGAVGVSFMFNGTSFGFVNCHLTSGNEKTARRNQNYLDILRLLSLGDRQLNAFDISLRFTHLFWFGDLNYRLDMDIQEILNYISRKEFEPLLRVDQLNLEREKHKVFLRFSEEEISFPPTYRYERGSRDTYAWHKQKPTGVRTNVPSWCDRILWKSYPETHIICNSYGCTDDIVTSDHSPVFGTFEVGVTSQFISKKGLSKTSDQAYIEFESIEAIVKTASRTKFFIEFYSTCLEEYKKSFENDAQSSDNINFLKVQWSSRQLPTLKPILADIEYLQDQHLLLTVKSMDGYESYGECVVALKSMIGSTAQQFLTFLSHRGEETGNIRGSMKVRVPTERLGTRERLYEWISIDKDEAGAKSKAPSVSRGSQEPRSGSRKPAFTEASCPLSRLFEEPEKPPPTGRPPAPPRAAPREEPLTPRLKPEGAPEPEGVAAPPPKNSFNNPAYYVLEGVPHQLLPPEPPSPARAPVPSATKNKVAITVPAPQLGHHRHPRVGEGSSSDEESGGTLPPPDFPPPPLPDSAIFLPPSLDPLPGPVVRGRGGAEARGPPPPKAHPRPPLPPGPSPASTFLGEVASGDDRSCSVLQMAKTLSEVDYAPAGPARSALLPGPLELQPPRGLPSDYGRPLSFPPPRIRESIQEDLAEEAPCLQGGRASGLGEAGMSAWLRAIGLERYEEGLVHNGWDDLEFLSDITEEDLEEAGVQDPAHKRLLLDTLQLSK
As to B1, the binding result in assay [2] was “binds”.

The values above are taken from paper PMC10782615.
